# Laboratory results taken from PubChem BioAssay (EPA / NIEHS).
# Several values for one entry are separate records, joined by “and”; a condition that tells them apart may be missing. Identical values can stand only once. Inconclusive results, whose numbers are uncertain, are shown with a selection of clear calls. Where the call is inconclusive, the potency comes from a doubtful curve fit. A structure can be active in one record and inactive in another. Activity calls are given as the source filed them. How the source made its calls: active means hit-call score of the fitted dose curve at least 0.9, where 1 is the maximum; inconclusive means response in the unintended direction; inactive means score below 0.9.
# Test: TOX21_p53_BLA_p4_viability: Viability Assessment in the Tox21 HCT-116 p53 Agonism Beta-lactamase Assay, Phase 4 (AID 2283597);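 further: hits lower the luminescence signal meaning cytotoxicity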
# In short: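 ATP content by CellTiter-Glo luminescence, 30 min RT, read after the beta-lactamase ratio step. Cells: HCT116, 4000/well, compound added after 5 h, exposure 16 h at 37C. Signal loss = reduced viability.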
Compound,AC50,outcome
CC(C)=CCCC(C)=CC#N,inconclusive: 2.87 µM,
Cc1ccc([N+](=O)[O-])c(C)c1,inconclusive: 46.1 µM,
CC[C@H](C)[C@@H](C(=O)O)n1sc2ccccc2c1=O,,inactive
O=P(OC(CCl)CCl)(OC(CCl)CCl)OC(CCl)CCl,active: 53.8 µM and inconclusive: 45.9 µM,
Cc1ccc(C(C)C)cc1,inconclusive: 46.3 µM,inactive
CN(C)CCOC(c1ccccc1)c1ccccc1,inconclusive: 46.1 µM and inconclusive: 15.2 µM,
COC(=O)c1ccc(C(=O)OC)cc1,inconclusive: 46.1 µM,
CC(C)(C)C(=O)c1ccccc1,inconclusive: 46.1 µM,
CC(=O)S[C@@H]1CC2=CC(=O)CC[C@]2(C)[C@H]2CC[C@@]3(C)[C@@H](CC[C@@]34CCC(=O)O4)[C@H]12,,inactive
c1ccc2occc2c1,,inactive
CC(C)c1ccc(O)c(C(C)C)c1,active: 44.7 µM,
CCCCC(CC)COC(=O)/C=C/c1ccc(OC)cc1 (stereo not drawn),,inactive
CC(C)CCCCCCc1ccc(O)cc1,active: 25.6 µM and active: 34.7 µM,
CCCCCCCCn1sc(Cl)c(Cl)c1=O,active: 80.4 µM,
CCc1c(C(=O)NN2CCCCC2)nn(-c2ccc(Cl)cc2Cl)c1-c1ccc(Br)cc1,active: 2.1 µM,
CC1=CCC(=C(C)C)CC1,inconclusive: 79.1 µM,
CCCCc1ccc2c(n1)[C@@H](c1ccc(OC)cc1C[C@H](C)C(=O)O)[C@H](C(=O)O)[C@H]2c1ccc2c(c1)OCO2,,inactive
